In paper PMC6690549:
No constants are given. Whether binding was seen depends on the method and setting. In cells and extracts the contact can be indirect. Some results given as binding are weak or reduced against the parent protein; the word gives no strength. Each block holds one substance with its values, some of them ahead of it.

Amino acid sequences for entries named in this document (tags omitted). A change or cut given only in a name is not applied to a line headed by its entry.
UniProt P78337: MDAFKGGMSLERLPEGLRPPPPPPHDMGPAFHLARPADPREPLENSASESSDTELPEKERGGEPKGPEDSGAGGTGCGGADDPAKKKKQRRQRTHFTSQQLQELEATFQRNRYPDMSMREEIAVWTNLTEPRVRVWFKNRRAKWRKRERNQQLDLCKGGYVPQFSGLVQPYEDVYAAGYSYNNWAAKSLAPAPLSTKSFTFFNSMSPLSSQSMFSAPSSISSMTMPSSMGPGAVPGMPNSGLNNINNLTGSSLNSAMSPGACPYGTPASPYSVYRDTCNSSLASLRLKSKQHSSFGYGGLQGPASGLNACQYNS
UniProt Q8TBK6: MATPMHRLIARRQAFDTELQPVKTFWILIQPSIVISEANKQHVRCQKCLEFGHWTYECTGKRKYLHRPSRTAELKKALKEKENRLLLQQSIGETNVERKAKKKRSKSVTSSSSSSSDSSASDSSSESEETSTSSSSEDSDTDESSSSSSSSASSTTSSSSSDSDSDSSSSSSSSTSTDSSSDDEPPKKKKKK

How the values were obtained:
[1] = biological target: FLAG-tagged wild-type PITX1 (paired-like homeodomain 1) (human) (UniProt P78337); test: co-IP; U2OS cells expressing FLAG-PITX1; immunoprecipitated with anti-FLAG antibody, immunoblotted with anti-FLAG and anti-ZCCHC10 antibody (endogenous ZCCHC10); control: empty vector cells
[2] = biological target: FLAG-tagged wild-type ZCCHC10 (human) (UniProt Q8TBK6); test: co-IP; A2058 cells transiently co-transfected with one FLAG-tagged and one non-tagged expression vector, harvested after 24 h; lysis buffer 100 mM Tris HCl pH 7.5, 300 mM NaCl, 2 mM EDTA, 2% Triton X-100; anti-FLAG M2 affinity gel (FLAG Immunoprecipitation Kit); western blotting with anti-PITX1 and anti-ZCCHC10 antibodies; control: empty FLAG vector
[3] = biological target: FLAG-tagged wild-type PITX1 (paired-like homeodomain 1) (human) (UniProt P78337); test: as above

binding [1]: binds
Substance: Zinc finger CCHC domain-containing protein 10 (ZCCHC10), endogenous (from UniProt Q8TBK6-1 1-192)

binding [2]: binds
Substance: PITX1, wild type, non-tagged expression vector (from UniProt P78337 1-314)

binding [3]: binds
Substance: ZCCHC10, wild type, non-tagged expression vector (from UniProt Q8TBK6 1-192)
